# Measured values: BindingDB's records for doi:10.1007/pl00005133 (Eli Lilly, 1998)
# Sequences of proteins named here, by UniProt entry; tags and fusion partners are left off.
# UniProt P41595, whole entry: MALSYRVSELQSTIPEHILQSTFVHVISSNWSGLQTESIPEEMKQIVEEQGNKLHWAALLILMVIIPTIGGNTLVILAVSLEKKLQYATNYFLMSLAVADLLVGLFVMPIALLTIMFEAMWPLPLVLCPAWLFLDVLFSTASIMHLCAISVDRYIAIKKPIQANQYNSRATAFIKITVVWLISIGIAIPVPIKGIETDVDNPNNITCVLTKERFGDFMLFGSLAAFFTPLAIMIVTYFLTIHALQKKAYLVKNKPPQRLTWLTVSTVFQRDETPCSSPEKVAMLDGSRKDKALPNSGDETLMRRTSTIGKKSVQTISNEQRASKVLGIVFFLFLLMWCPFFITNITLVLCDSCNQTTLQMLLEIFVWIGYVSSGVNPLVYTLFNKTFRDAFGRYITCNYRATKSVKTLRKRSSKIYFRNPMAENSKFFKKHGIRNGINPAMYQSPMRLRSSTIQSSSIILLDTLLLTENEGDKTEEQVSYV
# “And” between values parts separate entries of the source, which are not always exact repeats. Identical values can stand only once.
# Biological target: 5-hydroxytryptamine receptor 2B (Homo sapiens, UniProt P41595)
smiles,measurement,value
CC[C@@H](CO)NC(=O)[C@@H]1C=C2c3cccc4c3c(cn4C)C[C@H]2N(C)C1,Ki,1.51 nM and 0.64 nM
